Results published in patent US20060142279A1 (priority 2004, published 2006).
Some results were stated once for a whole list of compounds, not compound by compound.

Each molecule was assayed on dormant Mycobacterium tuberculosis (H37RV) (assay: Wayne dormancy model, CFU assay). Conditions: 10 μg/ml; drug added after 14 days, cultures collected after 22 days.

| SMILES | reduction of the dormant bacteria (CFU compared to untreated control) |
| --- | --- |
| COc1nc2ccc(Br)cc2cc1[C@@H](c1ccccc1)[C@@](O)(CCN(C)C)c1cccc2ccccc12 [Compound 12, (αS, βR)-6-bromo-α-[2-(dimethylamino)ethyl]-2-methoxy-α-1-naphthalenyl-β-phenyl-3-quinolineethanol] | more than 2 log10 |
| COc1c(N2C[C@@H]3CCCN[C@@H]3C2)c(F)cc2c(=O)c(C(=O)O)cn(C3CC3)c12 [moxifloxacin, reference compound] | more than 2 log10 |
| CO[C@H]1/C=C/O[C@@]2(C)Oc3c(C)c(O)c4c(O)c(c(/C=N/N5CCN(C)CC5)c(O)c4c3C2=O)NC(=O)/C(C)=C\C=C\[C@H](C)[C@H](O)[C@@H](C)[C@@H](O)[C@@H](C)[C@H](OC(C)=O)[C@@H]1C [rifampin, reference compound] | more than 2 log10 |
